About 210 (0.4%) of roughly 52,000 sequences were called active.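 How the source made its calls: active means gene whose silencing raises cell survival under the drug, median off-target-corrected z-score across its silencing RNAs 2 or more; inactive means the rest.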 Some of the results follow.
Assay: Resistance to Poly (ADP-Ribose) Polymerase inhibitor: Gene Identification via Genome-wide siRNA Screen
Conditions: mouse BRCA2 R2336H ES cells, olaparib, CellTiter-Glo viability; hits give high values
Procedure, shortened: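 Mouse BRCA2 R2336H ES cells were reverse-transfected with siRNA (20 nM final), treated at 48 h with 500 nM olaparib, and read by CellTiter-Glo after 72 h. Scores: MAD-based z per siRNA, median per gene, seed off-target correction.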
With “CCCUCUUUAUCAAAGCCAATT against 2310067E19Rik” the z-score was inactive: -0.732. With “GCCCACAGGAUAAUUGUUATT against 0610010K06Rik” the z-score was inactive: 1.62. With CCAAGUGGGAUUUGCCAACTT against Ifi47 the z-score was inactive: 0.0942. For CUGCUUUUGAGUCUGGCGATT against Iigp5, the z-score was inactive: 0.314. With GGAUUGUUUCAGAGAUGGATT against Stx6 the z-score was inactive: -1.02. In the case of GGAAAAAAGGAUUUCAAACTT against Rad9b, the z-score is reported as inactive: 0.238. In the case of CCCUCUAUGCCAAAAGCUATT against CRG-L1, the z-score is reported as inactive: 0.387. In the case of GGUACCUUCAUCUUGGUGGTT against Olfr699, the z-score is reported as inactive: -0.0692. For CCUACGCAAUGAUGACCAGTT against Thrap5, the z-score was inactive: -0.965. For GGGAUAAUAAAGAAGAAGUTT against Dach2, the z-score was inactive: 0.428. For GGUCAAUACAAAGAAACUATT against Rabl2a, the z-score was inactive: -0.23. With GGUUGUCAGUAAGAACCUGTT against BC053071 the z-score was inactive: -0.9. With CGGAUGAGAGGACAUGUAUTT against Tcd1d16 the z-score was inactive: 0.88. With GGGUAUGGUUUCAUCACUUTT against Boll the z-score was inactive: 0.257. In the case of “GGUUUGGCUUAGCUCAUCATT against 9030224M15Rik”, the z-score is reported as inactive: -2.81. With GGAUGCUAGCAAAAGGGAUTT against Bex2 the z-score was inactive: -0.211. In the case of CGUGACUAUUGGAGAAUUUTT against Gpr156, the z-score is reported as inactive: 1.31. With GGAAUAGAUUUUUUGAGUGTT against Twistnb the z-score was inactive: -0.389. With CCAUUGCCUACCUUGGAUGTT against Olfr492 the z-score was inactive: -0.793. For CCACCUAAUUUAUUGCUGUTT against Mafk, the z-score was inactive: 1.45. In the case of GGCAUUGAUCCUGUCCAUGTT against Ddx11, the z-score is reported as inactive: 1.47. In the case of CCCAAUUAAAUUUGAGGGUTT against Cai, the z-score is reported as inactive: -0.882. With GCCACAGAAAGUGAUUGAGTT against Rbp7 the z-score was inactive: 0.534. In the case of GGUCUGUAUCCUUAUGGCUTT against Olfr103, the z-score is reported as inactive: 1.39. In the case of “GGAAGAUGUUGAUGAUAUCTT against 1110031B06Rik”, the z-score is reported as inactive: 1.01. With “GGACCAACCUUAUAUGAAATT against 1110064N10Rik” the z-score was inactive: -0.362. With “GGAAGCUUUUUUCUGAGCUTT against 1810037C20Rik” the z-score was inactive: 0.0985. With GCUUGGACCAUAAAUACUGTT against Senp5 the z-score was inactive: 0.259. With GAAAGAAACUGCUGAAUGATT against V1re3 the z-score was inactive: -2.09. With GGAUUGAAAAGAUGAAUCGTT against Ict1 the z-score was inactive: 2.12. For GCUUUAAGUACUUUAACGCTT against Ncr1, the z-score was inactive: 0.629. For GCUAAUGUGUUCAUUACAGTT against Nek7, the z-score was inactive: 0.258. In the case of GGAAUUCAAUCUCCUCUACTT against Popdc2, the z-score is reported as inactive: 2.51. With “GGAAAUUUGGGUAGGAGUGTT against 2010107E04Rik” the z-score was inactive: -3.11. For GGGAGAAAUACAUACACACTT against Cish, the z-score was inactive: -0.231. With GGAAGAUGGAGGAGAAGAATT against Hrh3 the z-score was inactive: -0.629. For “GGUCUUUUAGAGUAGGAUUTT against C130037N17Rik”, the z-score was inactive: 0.284. In the case of GCUAUCCUCAAUUGCACACTT against Mjd, the z-score is reported as inactive: 0.121. For GGGUGCAGGAAUUGGUGUUTT against Cd37, the z-score was inactive: -0.565. For GCGAGAUUGGUGCAAAACUTT against Grem1, the z-score was inactive: 1. For GGGAAAGUAAGGGCUGGUUTT against Olfr317, the z-score was inactive: -0.896. In the case of GCUUCCUUAUGGUUUGAACTT against Atp9a, the z-score is reported as inactive: -0.123. With “CCUUGAGUACUUAUUGCGUTT against 1810008K03Rik” the z-score was inactive: -0.0608. In the case of “GGAGGGAAUCAGAGAACAGTT against 3830402I07Rik”, the z-score is reported as inactive: -0.781. In the case of “CCCUUGCUUUCAUGAUUUATT against A530023O14Rik”, the z-score is reported as inactive: 1.46. For “CGUGGCUAAACAAAGAGCUTT against 2810453L12Rik”, the z-score was inactive: 2.38. In the case of “GGAAUUCUCUAUACCAAGATT against A630033H20Rik”, the z-score is reported as inactive: -1.26. With CCUAAUGUAGUUGUCUCUUTT against Rbp3 the z-score was inactive: -1.34. With GCACUGUUUGUCAAGAAUGTT against Cdc42ep4 the z-score was inactive: -0.697. With GGAUUUUGUUCUUACAGUUTT against Nfia the z-score was inactive: 0.677. For “GGAAUUUUGGUAGGUUUUATT against 4930577M16Rik”, the z-score was inactive: 0.873. In the case of “GAUGCAGCAGCCAUAAGAATT against Defcr-rs12”, the z-score is reported as inactive: -0.997. In the case of GGCUCAGGUGUUCAAGAUATT against Cd109, the z-score is reported as inactive: 0.108. With “GGCAGAAGUCCAACUUCUUTT against A530088H08Rik” the z-score was inactive: 1.21. With GGACGUGUUUUACAAAUACTT against Sfrs1 the z-score was inactive: -2.33. In the case of GGAAGAGCUCAUGAAGCUGTT against Foxi1, the z-score is reported as inactive: -0.288. In the case of “GUUUCAGCCUGAGUGACAATT against 2900009I07Rik”, the z-score is reported as inactive: -0.837. With CACCUUCAUUUUUGAAAUCTT against Krt2-6a the z-score was inactive: -0.393. With GGGUUAUAAUGAAAAUCCUTT against Cabp5 the z-score was inactive: 0.502. For GGGUUUGACAGAGAGAAGATT against Atp5g2, the z-score was inactive: -1.06. For GCUAAACAUUAGGUAAAGGTT against Cyp24a1, the z-score was inactive: 0.654. In the case of GGUGGCUAUAACAGAGCCUTT against AY053573, the z-score is reported as inactive: -0.327. In the case of GAUGUACUUCUUUGUAGCUTT against Olfr398, the z-score is reported as inactive: 1.06. For GGUACUCCCUAAAUCUAAGTT against Zbtb8, the z-score was inactive: -0.596. In the case of GAUGCCUUUUAUGGGUGCATT against Olfr61, the z-score is reported as inactive: -1.65. With GCGAGCUUAUAGGUUCGUGTT against Spop the z-score was inactive: -0.502. In the case of GCAAUAACCUGGUAGGCUCTT against Fxyd6, the z-score is reported as inactive: -0.449. In the case of GGGCAAAAUUUUACUAAUCTT against Ppp1r9b, the z-score is reported as inactive: 0.786. For GGACUAUGAGCAGAUGAAGTT against Calcb, the z-score was inactive: -1.61. In the case of GGAAGUUCGCUUGGUACCGTT against Snrpb2, the z-score is reported as inactive: 2.68. With GGUUAAUGAGCUCUGUAAATT against Pknox1 the z-score was inactive: -0.62. For CGGGAGUAUCUGCUUCAGUTT against Ndufb4, the z-score was inactive: 1.35. For CCACCAACUACAGAACAUATT against BC016548, the z-score was inactive: -0.318. In the case of GCAGUGAUCCGGAACAAAUTT against Tmc3, the z-score is reported as inactive: -0.806. With “GGUGCUGACUCCGACUAAATT against D10Bwg0940e” the z-score was inactive: 0.441. With GGUAAUAAUCUCCUAGAGUTT against Bach1 the z-score was inactive: 0.532. With GGAGCUAUGUUCAGUUCUUTT against Qscn6 the z-score was inactive: -1.03. With GGUCAGCAGCCCAAACAUUTT against Ubl3 the z-score was inactive: -0.463. In the case of CCAGCUCUAGUUUUUAAUCTT against Coq3, the z-score is reported as inactive: 0.642. With “GCUAAUUCAAGAGGAACUATT against 4932411G06Rik” the z-score was inactive: -0.108. For CCAACCUGCGCGACUGCCGTT against Sts, the z-score was inactive: -0.518. For GGAAUGAAGUCUGUCUUCGTT against Zdhhc7, the z-score was inactive: -0.175. In the case of GGACAGAUAGGAUUAGAGATT against Igfbp5, the z-score is reported as inactive: 0.0163. For CCCUGAAUGUUCGAGGAGATT against D11Lgp1e, the z-score was inactive: -0.446. With CCUUGAUGUAGCAGGUUUGTT against Aoc2 the z-score was inactive: 1.53. In the case of GGUCAUGCAGGUUUUGAAUTT against AL033314, the z-score is reported as inactive: -0.69. With GCUCCAAUAACAUGAGUAGTT against AW125688 the z-score was inactive: -2.4. In the case of GGCAACAUUAGAAGACAGUTT against Tfb1m, the z-score is reported as inactive: -0.803. For CCUGGUGAAGCUAAUCACCTT against Adamts13, the z-score was inactive: -2.41. In the case of GCCUGACUUUAUGGUAAAATT against Mnat1, the z-score is reported as inactive: 0.585. For CGGAGUAACUCAACUAACATT against Tcte2, the z-score was inactive: -2.34. In the case of GGGCGAUAUUAUGAGCAACTT against Atp1b2, the z-score is reported as inactive: 1.54. With GGAUCCGUUUUGGUGGAAUTT against Enpp4 the z-score was inactive: 1.83. For GCCUUACAUGAGCCCAUGUTT against Olfr550, the z-score was inactive: -0.448. In the case of GGAUAAAUGUCGUUAUAACTT against Zdhhc17, the z-score is reported as inactive: 0.527. With GGCACUGAAAAUAUAUUUGTT against Cs the z-score was inactive: -0.0447. With GCUCUCCAUUACGUGCUUGTT against Rnu3ip2 the z-score was inactive: -0.988. In the case of GGAACUCCAGCAACUGCCATT against Plpi, the z-score is reported as inactive: -1.15. With GCGACCUUGAAUGGAUUCGTT against Rps29 the z-score was inactive: -0.8. With GGUGAUCAGUGCCUACAGATT against BC024868 the z-score was inactive: -0.5. With “GGGAAAGGAAGAUGAUAUCTT against 4930511H01Rik” the z-score was inactive: 0.26. For CCCAAUUCCUUAACUAUUATT against Cd209a, the z-score was inactive: 0.697. For GGUGAACUUGGCAGAGCUGTT against Prdx5, the z-score was inactive: -1.25. For UCCUUCAUUUGAAUGCAAGTT against Hist3h2bb, the z-score was inactive: -0.184.

— PubChem BioAssay AID1347423 (Functional Genomics Laboratory (NCATS/FGL), 2020)
